Test results published in the supplement of paper PMC3334620.
In all, about 33,000 sequences were measured (“E-score (-0.5 to 0.5)”: median about -0.0034, highest 2% from about 0.25 on). This is one part of the list.

target: T1, Yap3 (UniProt P38749); assay: PBM E-score (8-mer binding enrichment) (E-score (-0.5 to 0.5)); higher = stronger / more preferred TF binding; details: protein concentration: 100 nM; construct: GST-full length
T1 sequence: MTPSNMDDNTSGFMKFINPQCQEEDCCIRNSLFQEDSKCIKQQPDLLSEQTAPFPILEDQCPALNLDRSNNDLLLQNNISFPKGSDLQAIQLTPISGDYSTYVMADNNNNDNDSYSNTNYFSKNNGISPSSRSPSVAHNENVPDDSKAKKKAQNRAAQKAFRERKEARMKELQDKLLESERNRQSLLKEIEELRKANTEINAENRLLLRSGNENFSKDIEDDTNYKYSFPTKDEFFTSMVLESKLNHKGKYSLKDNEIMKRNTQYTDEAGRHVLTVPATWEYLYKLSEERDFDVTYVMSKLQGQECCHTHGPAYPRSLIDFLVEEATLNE
In short: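 The E-score, a modified Wilcoxon-Mann-Whitney statistic, was computed by the Universal PBM Analysis Suite for every ungapped eight-base word pooled with its reverse complement. Scans behind it were normalised with masliner after bound GST-tagged yeast transcription factors were detected with fluorescent anti-GST. The proteins, at about 100-200 nM, had been applied to universal all-10-mer Agilent arrays made double-stranded by primer extension.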

Row | Sequence | PBM E-score
1 | CTATCACC | -0.0318
2 | AGACGCTC | -0.253
3 | AGATCCCA | -0.0651
4 | GGCGAATA | 0.0668
5 | GCACTAAA | 0.179
6 | CAGCTGGA | 0.102
7 | ACTGGACG | -0.0457
8 | GTTAACGA | 0.167
9 | ACCAGAGA | -0.00787
10 | AGATTGTC | -0.0909
11 | GGAGTCAA | -0.156
12 | ACCGAATG | -0.0639
13 | GCAACACA | -0.0278
14 | AACCATGT | 0.00383
15 | ACCTCTGA | -0.0278
16 | GAGAGGGC | -0.449
17 | AAACGCCG | 0.119
18 | AGTCTAAC | -0.137
19 | AACAATAA | 0.179
20 | ATCACCAT | 0.13
21 | CAACGGGG | -0.152
22 | CCGTCAAG | -0.0289
23 | GTATCGAC | 0.0837
24 | ATTCACCG | 0.182
25 | CCCAAGGA | -0.126

Row | Sequence | PBM E-score
26 | CTCGCCAC | 0.0355
27 | CATTTAAC | 0.0928
28 | ATCCATAA | 0.258
29 | AAAGGCCC | -0.021
30 | AGCATTCA | 0.0165
31 | GATGCATC | 0.139
32 | ACATCAGA | 0.0871
33 | ACGGTAAT | 0.0508
34 | AGTGATTC | 0.021
35 | ATCTTGGG | 0.062
36 | AACCTGGC | -0.105
37 | CAGTGAAG | -0.0604
38 | CGAGATGA | -0.0283
39 | CCCCTGGC | -0.307
40 | CAAGGTGC | -0.163
41 | ACTAATTC | 0.178
42 | GGTCACAA | -0.0419
43 | GTAGAGTA | 0.0372
44 | GTCCCAAC | -0.105
45 | GACTAATC | 0.175
46 | GCGAACTA | 0.105
47 | ACCATCAC | 0.0126
48 | ACGTTTCA | 0.096
49 | GGGTACAA | -0.0419
50 | CGGCAAAG | -0.0725

Retrieved one by one from above (two):
Row | Sequence | PBM E-score
44 | GTCCCAAC | -0.105
47 | ACCATCAC | 0.0126

Following part

Row | Sequence | PBM E-score
51 | CGACCGGC | -0.172
52 | AGCATTGC | -0.181
53 | AACGGAGG | -0.117
54 | AGCCTGTA | -0.0823
55 | GCGTAAGA | 0.211
56 | AGACGTGC | 0.0139
57 | CGCCTACC | -0.18
58 | AACTCTGT | -0.0279
59 | AAAATCCA | 0.28
60 | AATAGGCG | 0.143
61 | GACTACCC | -0.0996
62 | GGACGTTA | 0.0755
63 | ACTTGATC | 0.157
64 | AGCATAAG | 0.157
65 | GTCCTACA | 0.109
66 | ATCACATC | 0.131
67 | AATCTGTA | 0.085
68 | ACATCCTG | 0.186
69 | GTTGGTCA | 0.144
70 | AACTAGCA | 0.109
71 | AGTAATCG | 0.149
72 | GGTATCCA | 0.0469
73 | AAACATCT | -0.0427
74 | GCGTTCCC | -0.184
75 | AGACTGCT | 0.0597

Reformatted: entries from further up
Row,Sequence,PBM E-score
38,CGAGATGA,-0.0283
39,CCCCTGGC,-0.307
40,CAAGGTGC,-0.163
41,ACTAATTC,0.178
42,GGTCACAA,-0.0419
43,GTAGAGTA,0.0372
44,GTCCCAAC,-0.105
45,GACTAATC,0.175
46,GCGAACTA,0.105
47,ACCATCAC,0.0126
48,ACGTTTCA,0.096
49,GGGTACAA,-0.0419
50,CGGCAAAG,-0.0725
51,CGACCGGC,-0.172
52,AGCATTGC,-0.181
53,AACGGAGG,-0.117
54,AGCCTGTA,-0.0823
55,GCGTAAGA,0.211
56,AGACGTGC,0.0139
57,CGCCTACC,-0.18
58,AACTCTGT,-0.0279
59,AAAATCCA,0.28
60,AATAGGCG,0.143
61,GACTACCC,-0.0996
62,GGACGTTA,0.0755
63,ACTTGATC,0.157
64,AGCATAAG,0.157
65,GTCCTACA,0.109
66,ATCACATC,0.131
67,AATCTGTA,0.085
68,ACATCCTG,0.186
69,GTTGGTCA,0.144
70,AACTAGCA,0.109
71,AGTAATCG,0.149
72,GGTATCCA,0.0469

The list goes on:

Row | Sequence | PBM E-score
76 | AGATCTGC | -0.147
77 | CCCAGAGG | -0.318
78 | CGCATTTA | 0.126
79 | ATCCCACC | 0.0276
80 | CCCGGACG | -0.249
81 | ATCACCAA | 0.112
82 | AGACCGCC | -0.0683
83 | ATATCCCG | 0.0419
84 | TTCCGCAA | 0.00145
85 | AGGCGCAA | 0.116
86 | ATCCGAAG | 0.00945
87 | AGAACGTG | 0.0554
88 | AATAACAT | 0.164
89 | CAGGCGCA | -0.0934
90 | CTTATTGC | 0.0255
91 | AAGTATGT | 0.11
92 | AACTTCGA | 0.152
93 | CTCAGATA | 0.19
94 | AATTTACT | 0.271
95 | ACATCGAC | 0.0194
96 | TAGGGTCA | -0.117
97 | TTGCGCAA | 0.141
98 | TAGGCGGA | 0.121
99 | AGCAGTGC | -0.0942
100 | CGGTGGGC | -0.0629

Row | Sequence | PBM E-score
101 | CAACCTTG | 0.119
102 | GTTTGCTA | 0.104
103 | CCACTATC | 0.012
104 | GTAACATA | 0.0827
105 | GTATGACA | 0.0895
106 | ATGAGAGC | -0.0797
107 | CTTCCGCC | -0.184
108 | ATCATTGA | 0.11
109 | GAACTTAA | 0.0877
110 | TTAACGAA | 0.179
111 | AGGCACGC | -0.119
112 | GAACCCTC | -0.259
113 | GGTTCCGA | -0.0315
114 | CATAGTAC | -0.0332
115 | GTACCCAC | 0.0029
116 | CTTGTAGA | -0.148
117 | CAGTTTCA | -0.0336
118 | CGTCTATC | -0.0275
119 | CGAACTAG | -0.0523
120 | CAGTACTC | -0.151
121 | CACACATA | 0.0181
122 | AACGGTGT | 0.0135
123 | GCAGTGAA | 0.225
124 | CCGTGACC | -0.274
125 | CTGTGCAA | -0.103

Row | Sequence | PBM E-score
126 | AACCCAGA | -0.0116
127 | ACCATTAA | 0.26
128 | ATTCCTTA | 0.138
129 | AACTAATG | 0.23
130 | CCTGAGCG | -0.225
131 | TACGTCAA | 0.139
132 | ATACCAAT | 0.0537
133 | CTTCGACC | -0.0443
134 | AATTTGCC | 0.108
135 | TATTCTCA | 0.142
136 | AAATACGG | 0.0609
137 | CAATGCCG | 0.0489
138 | GATTAGCC | 0.0735
139 | CCACCGTA | -0.0745
140 | CTGACGCA | -0.12
141 | GAAGGCTC | -0.261
142 | CCCTAGTC | -0.171
143 | AGGCTCTC | -0.246
144 | ATCAGCGG | -0.0705
145 | AACTTATA | 0.203
146 | ACGAGTAG | -0.0142
147 | CAGCACGG | -0.109
148 | ATAAGAAC | 0.289
149 | CACATGAA | 0.0106
150 | TCTTCGAA | 0.00967

A few values from above.
Value for CACATGAA under PBM E-score: 0.0106
Value for CAATGCCG under PBM E-score: 0.0489

The list goes on.

Row | Sequence | PBM E-score
151 | CTAAGAAC | 0.172
152 | CGAGTGGC | -0.04
153 | ACATATCA | 0.254
154 | CTGGAAAG | -0.0773
155 | CTATGGAA | -0.0751
156 | CTTCCGCA | -0.104
157 | CTTGGTTC | 0.146
158 | AGTTCGTA | 0.174
159 | TGCGTCCA | -0.179
160 | ACGTCGTC | -0.0819
161 | CACAATAC | 0.114
162 | AGCCAAAA | 0.125
163 | ACCTTGGC | -0.109
164 | CAAACATG | 0.0155
165 | CTGCCTCC | -0.149
166 | CTCAGGGC | -0.178
167 | GAAACGCA | 0.0614
168 | TTAACCAA | 0.182
169 | CCTCTCAC | -0.0776
170 | GACTATGA | -0.00301
171 | CGGCATAA | 0.0649
172 | CCCAAGTC | -0.174
